Results from PMC12825198.
These are yes or no findings as the source states them, for the method shown. Binding seen in cells or lysates may run through a third protein. These calls come from enrichment with a bait or labelling near it, and not all partners need be listed.

The chains behind the UniProt entries cited, without tags or fusion partners. Where a name states a change or a piece, a line headed by the entry shows the natural chain unless it says otherwise.
UniProt P05556: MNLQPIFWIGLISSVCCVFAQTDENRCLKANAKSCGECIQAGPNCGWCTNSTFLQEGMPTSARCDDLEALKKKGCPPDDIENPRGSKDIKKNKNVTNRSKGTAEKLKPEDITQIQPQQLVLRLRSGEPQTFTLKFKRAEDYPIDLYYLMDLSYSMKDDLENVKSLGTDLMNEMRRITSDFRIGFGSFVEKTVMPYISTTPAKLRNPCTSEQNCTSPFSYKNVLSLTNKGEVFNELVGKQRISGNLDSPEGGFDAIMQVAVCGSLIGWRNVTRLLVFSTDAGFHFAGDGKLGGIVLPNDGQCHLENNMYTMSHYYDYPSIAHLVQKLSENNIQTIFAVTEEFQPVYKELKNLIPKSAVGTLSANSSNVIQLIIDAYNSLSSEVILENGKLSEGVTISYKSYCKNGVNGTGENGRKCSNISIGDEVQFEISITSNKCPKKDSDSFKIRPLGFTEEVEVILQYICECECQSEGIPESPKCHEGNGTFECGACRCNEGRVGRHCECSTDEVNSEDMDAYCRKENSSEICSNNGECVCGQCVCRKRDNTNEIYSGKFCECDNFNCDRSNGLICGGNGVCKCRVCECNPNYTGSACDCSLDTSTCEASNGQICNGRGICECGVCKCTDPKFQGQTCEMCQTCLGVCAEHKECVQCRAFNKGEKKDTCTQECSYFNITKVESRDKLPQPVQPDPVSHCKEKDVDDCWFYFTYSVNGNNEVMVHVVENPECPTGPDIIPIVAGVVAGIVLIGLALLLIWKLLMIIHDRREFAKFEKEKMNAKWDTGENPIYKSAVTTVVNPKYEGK

Biological target: T1, peroxidasin (PXDN) (human (endogenous in HK1)) (UniProt Q92626)
T1 sequence: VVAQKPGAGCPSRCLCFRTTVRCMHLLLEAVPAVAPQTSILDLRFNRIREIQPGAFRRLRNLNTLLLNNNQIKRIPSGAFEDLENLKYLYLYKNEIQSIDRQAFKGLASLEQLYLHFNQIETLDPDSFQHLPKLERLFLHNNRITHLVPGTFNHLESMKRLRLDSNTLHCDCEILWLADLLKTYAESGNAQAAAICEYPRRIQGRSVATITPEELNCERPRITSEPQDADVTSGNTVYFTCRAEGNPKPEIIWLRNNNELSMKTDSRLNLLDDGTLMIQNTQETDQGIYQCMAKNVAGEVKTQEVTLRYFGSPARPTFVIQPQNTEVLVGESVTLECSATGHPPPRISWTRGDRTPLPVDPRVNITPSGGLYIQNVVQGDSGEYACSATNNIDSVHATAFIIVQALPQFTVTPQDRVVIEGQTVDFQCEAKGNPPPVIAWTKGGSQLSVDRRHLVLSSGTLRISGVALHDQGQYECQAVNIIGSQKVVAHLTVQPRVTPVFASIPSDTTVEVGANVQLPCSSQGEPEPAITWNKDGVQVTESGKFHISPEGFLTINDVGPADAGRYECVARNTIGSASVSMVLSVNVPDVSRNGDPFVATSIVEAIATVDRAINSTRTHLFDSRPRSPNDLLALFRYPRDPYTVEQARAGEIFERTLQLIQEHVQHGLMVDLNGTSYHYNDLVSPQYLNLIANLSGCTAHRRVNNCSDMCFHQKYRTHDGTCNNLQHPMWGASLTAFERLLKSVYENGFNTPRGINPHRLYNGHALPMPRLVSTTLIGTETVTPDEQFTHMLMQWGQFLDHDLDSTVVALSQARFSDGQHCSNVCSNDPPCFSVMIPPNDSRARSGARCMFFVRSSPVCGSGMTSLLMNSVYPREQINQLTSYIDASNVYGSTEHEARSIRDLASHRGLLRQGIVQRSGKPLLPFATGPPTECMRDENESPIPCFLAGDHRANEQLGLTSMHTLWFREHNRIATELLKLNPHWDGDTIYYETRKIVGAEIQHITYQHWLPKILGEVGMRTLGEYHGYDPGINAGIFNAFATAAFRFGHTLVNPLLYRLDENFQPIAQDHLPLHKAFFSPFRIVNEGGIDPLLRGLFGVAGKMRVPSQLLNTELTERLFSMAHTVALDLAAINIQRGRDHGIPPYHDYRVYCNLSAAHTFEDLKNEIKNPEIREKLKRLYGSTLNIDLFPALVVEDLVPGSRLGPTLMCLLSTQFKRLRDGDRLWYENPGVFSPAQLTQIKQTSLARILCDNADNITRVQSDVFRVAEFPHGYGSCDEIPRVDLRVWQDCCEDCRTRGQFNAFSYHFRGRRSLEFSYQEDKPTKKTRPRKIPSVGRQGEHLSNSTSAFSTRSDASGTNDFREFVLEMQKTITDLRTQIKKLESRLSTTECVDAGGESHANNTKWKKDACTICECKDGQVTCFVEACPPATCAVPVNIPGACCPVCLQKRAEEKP
Assay: affinity purification with mass spectrometry; Co-IP of PXDN in HK1 cells (versus IgG) followed by mass spectrometry; hits intersected with genes correlated with PXDN expression in four cohorts

For “ITGB1 (from UniProt P05556 21-798) (receptor)”, the binding was “binds”.
